# Laboratory results published in publication PMC5572924.
# No constants are given. Whether binding was seen depends on the method and setting. Where a sequence is shown, tags or fusion partners need not be part of it.
# B1: mature PulG of Klebsiella oxytoca fused to the T25 or T18 fragment of Bordetella pertussis adenylate cyclase (CyaA) (protein, UniProt P15746 7-140)
# chain: FTLLEIMVVIVILGVLASLVVPNLMGNKEKADRQKVVSDLVALEGALDMYKLDNSRYPTTEQGLQALVSAPSAEPHARNYPEGGYIRRLPQDPWGSDYQLLSPGQHGQVDIFSLGPDGVPESNDDIGNWTIGKK
# Biological target: mature ComGC of Streptococcus pneumoniae fused to the T25 or T18 fragment of Bordetella pertussis adenylate cyclase (CyaA) (S. pneumoniae)
# Experiment: two-hybrid; bacterial adenylate cyclase two-hybrid (BACTH) in E. coli BTH101; T25 (pKT25) and T18 (pUT18C) fusions; beta-galactosidase activity in liquid culture in Miller units; cultures grown O/N at 30 °C
binder,measurement,value
B1,binding,no binding
